One assay addresses GST-KEAP1 (human) (UniProt Q14145). Briefly: pull-down; purified GST or GST-KEAP1 on GST beads incubated with purified Flag-USP16 overnight at 4 °C; washed 3 times with IP lysis buffer; western blot; both purified. A general note: A western blot detects proteins with antibodies after separation by electrophoresis.
For assay [1], the target named is Flag-tagged USP16 (ubiquitin carboxyl-terminal hydrolase 16) (human) (UniProt Q9Y5T5). As to the kind of experiment: co-IP; HEK293T cells transfected with Flag-USP16 and HA-KEAP1, MG132 for 6 h before collection, harvested after 48 h; IP buffer, protein A/G magnetic beads.
In assay [2] the target is USP16 (ubiquitin carboxyl-terminal hydrolase 16), endogenous in HepG2 cells (human (endogenous in HepG2)) (UniProt Q9Y5T5). Briefly: proximity ligation; PLA kit (Merck DUO92102-1KT) on cells; cells not named.
The target is the same in assay [3]. As to the kind of experiment: co-IP; endogenous proteins in HepG2 lysate (200 µg), primary antibody (1 µg) or IgG overnight at 4 °C, protein A/G magnetic beads; normal conditions, and with or without H/R challenge (interaction elevated after H/R).

The chains behind the UniProt entries cited, without tags or fusion partners.
UniProt Q14145: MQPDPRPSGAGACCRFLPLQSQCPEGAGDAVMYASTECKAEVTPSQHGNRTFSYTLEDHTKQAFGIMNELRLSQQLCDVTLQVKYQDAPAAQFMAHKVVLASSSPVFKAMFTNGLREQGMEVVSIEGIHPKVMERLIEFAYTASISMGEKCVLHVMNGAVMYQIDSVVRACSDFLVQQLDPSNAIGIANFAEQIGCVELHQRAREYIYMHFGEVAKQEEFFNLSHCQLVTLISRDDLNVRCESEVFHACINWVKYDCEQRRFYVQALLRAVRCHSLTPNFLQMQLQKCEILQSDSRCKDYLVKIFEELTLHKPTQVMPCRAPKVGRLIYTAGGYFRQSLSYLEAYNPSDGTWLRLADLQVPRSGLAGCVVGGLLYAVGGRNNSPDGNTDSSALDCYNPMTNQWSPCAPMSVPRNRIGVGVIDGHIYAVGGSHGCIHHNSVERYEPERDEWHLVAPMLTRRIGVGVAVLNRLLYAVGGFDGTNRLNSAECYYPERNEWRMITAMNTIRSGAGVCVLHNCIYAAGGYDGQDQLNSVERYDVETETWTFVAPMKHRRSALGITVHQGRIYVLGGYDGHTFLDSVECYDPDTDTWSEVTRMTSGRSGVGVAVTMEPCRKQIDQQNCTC
UniProt Q9Y5T5: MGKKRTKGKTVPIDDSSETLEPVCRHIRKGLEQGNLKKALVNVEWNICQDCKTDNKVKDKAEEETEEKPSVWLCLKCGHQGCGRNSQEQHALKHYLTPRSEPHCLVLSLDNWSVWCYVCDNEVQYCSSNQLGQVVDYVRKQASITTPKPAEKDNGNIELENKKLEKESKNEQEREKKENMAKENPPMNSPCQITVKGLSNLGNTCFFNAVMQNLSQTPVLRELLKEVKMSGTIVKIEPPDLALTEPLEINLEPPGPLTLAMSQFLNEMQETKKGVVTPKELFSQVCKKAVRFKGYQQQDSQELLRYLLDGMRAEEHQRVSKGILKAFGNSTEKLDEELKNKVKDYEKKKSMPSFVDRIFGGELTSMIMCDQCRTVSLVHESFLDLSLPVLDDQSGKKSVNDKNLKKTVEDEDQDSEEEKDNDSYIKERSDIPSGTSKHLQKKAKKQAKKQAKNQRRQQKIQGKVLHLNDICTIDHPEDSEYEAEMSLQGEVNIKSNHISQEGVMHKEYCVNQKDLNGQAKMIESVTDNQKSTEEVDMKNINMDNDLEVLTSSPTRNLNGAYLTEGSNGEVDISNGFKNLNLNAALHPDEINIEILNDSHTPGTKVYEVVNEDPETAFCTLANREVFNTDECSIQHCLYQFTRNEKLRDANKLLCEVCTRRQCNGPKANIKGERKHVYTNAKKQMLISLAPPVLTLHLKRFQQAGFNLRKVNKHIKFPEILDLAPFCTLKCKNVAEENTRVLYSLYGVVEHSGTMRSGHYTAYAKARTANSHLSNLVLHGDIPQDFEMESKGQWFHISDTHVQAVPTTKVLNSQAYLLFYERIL

Results are given in words; binding and its absence hold for the method and conditions named. For some of these results: In cells and extracts the contact can be indirect. Some entries that bind do so weakly or less than the wild type.

The source of these data is article PMC10542385.

In the case of “Flag-tagged USP16 (ubiquitin carboxyl-terminal hydrolase 16) (from UniProt Q9Y5T5 1-823) (enzyme)”, the binding entry with GST-KEAP1 (human) is “binds”.
Take “HA-tagged KEAP1 (Kelch Like ECH Associated Protein 1) (from UniProt Q14145 1-624)”: the binding entry in assay [1] is reported as “binds”.
With “KEAP1 (Kelch Like ECH Associated Protein 1), endogenous in HepG2 cells (from UniProt Q14145 1-624)”, the binding entry in assay [2] and in assay [3] was “binds” each time.
